Amino acid sequences for entries named in this document (tags omitted).
UniProt Q13547: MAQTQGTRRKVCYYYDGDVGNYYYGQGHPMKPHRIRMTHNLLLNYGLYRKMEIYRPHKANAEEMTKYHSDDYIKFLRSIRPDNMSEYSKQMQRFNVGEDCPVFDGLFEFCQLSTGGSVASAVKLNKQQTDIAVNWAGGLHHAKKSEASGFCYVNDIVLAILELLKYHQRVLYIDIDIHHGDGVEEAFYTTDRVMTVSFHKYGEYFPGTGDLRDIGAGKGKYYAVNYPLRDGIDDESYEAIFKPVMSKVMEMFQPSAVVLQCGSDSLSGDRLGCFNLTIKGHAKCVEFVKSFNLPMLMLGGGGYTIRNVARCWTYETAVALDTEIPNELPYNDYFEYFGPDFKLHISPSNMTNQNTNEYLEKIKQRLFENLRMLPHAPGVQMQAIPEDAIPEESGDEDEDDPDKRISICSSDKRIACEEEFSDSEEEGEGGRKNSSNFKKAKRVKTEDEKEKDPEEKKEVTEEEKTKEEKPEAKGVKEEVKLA

In paper PMC12518634, “The noncanonical function of liver-type phosphofructokinase potentiates the efficacy of HDAC inhibitors in cancer” (Signal Transduction and Targeted Therapy, 2025):

Molecular target: T1, PFKL (endogenous or tagged not stated; immunoprecipitates for mass spectrometry, co-IP of the PFK isoforms, purified PFKL added to HDAC1) (human) (UniProt P17858)
T1 sequence: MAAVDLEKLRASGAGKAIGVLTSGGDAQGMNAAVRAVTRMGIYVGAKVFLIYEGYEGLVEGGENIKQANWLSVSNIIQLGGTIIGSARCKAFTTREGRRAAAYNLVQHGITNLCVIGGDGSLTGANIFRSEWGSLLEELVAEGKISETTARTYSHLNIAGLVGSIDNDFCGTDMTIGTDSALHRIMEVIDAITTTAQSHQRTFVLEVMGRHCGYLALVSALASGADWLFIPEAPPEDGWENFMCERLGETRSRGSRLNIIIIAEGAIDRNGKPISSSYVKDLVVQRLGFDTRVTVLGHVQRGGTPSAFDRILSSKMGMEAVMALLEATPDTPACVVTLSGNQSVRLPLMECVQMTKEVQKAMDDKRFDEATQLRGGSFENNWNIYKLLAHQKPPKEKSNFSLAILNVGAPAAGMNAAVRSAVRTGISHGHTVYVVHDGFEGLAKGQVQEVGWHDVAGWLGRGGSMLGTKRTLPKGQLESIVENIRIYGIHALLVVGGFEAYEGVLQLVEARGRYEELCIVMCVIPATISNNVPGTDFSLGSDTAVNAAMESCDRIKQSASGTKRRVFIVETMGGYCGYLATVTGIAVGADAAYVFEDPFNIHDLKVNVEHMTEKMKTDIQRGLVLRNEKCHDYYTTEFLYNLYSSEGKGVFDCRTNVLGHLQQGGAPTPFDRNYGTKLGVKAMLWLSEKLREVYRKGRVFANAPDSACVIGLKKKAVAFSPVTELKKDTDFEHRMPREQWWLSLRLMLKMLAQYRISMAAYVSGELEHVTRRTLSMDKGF
Assay: affinity purification with mass spectrometry; mass spectrometry of PFKL immunoprecipitates

HDAC1 (endogenous or tagged not stated; immunoprecipitates for mass spectrometry and co-IP with the PFK isoforms) (from UniProt Q13547 1-482) (enzyme)
binding: binds

Results are given in words; binding and its absence hold for the method and conditions named. Binding seen in cells or lysates may run through a third protein. Here binding means that the protein was enriched with, or labelled near, the bait; the list need not be complete. Sequences can lack the tags named with a protein.
